{"source": "the supplement of paper PMC4635364", "key": {"ReNCell VM [1]": {"test_system": "ReNCell VM", "assay": "neuronal differentiation score (DCX+ cell fraction vs untreated, manual image score) (score (-3 to 3)); higher = more neuronal differentiation", "settings": "2 uM, 2 weeks"}, "ReNCell VM [2]": {"test_system": "ReNCell VM", "assay": "dopaminergic neuron differentiation score (TH+ cell fraction vs untreated, manual image score) (score (0 to 3)); higher = more TH+ dopaminergic neuron differentiation", "settings": "2 uM, 4 weeks, BDNF 10 ng/ml + GDNF 10 ng/ml"}}, "note": "Structures can show the parent of a compound that is named as a salt. The list shows a part of the results. Single values are uncertain here, since repeats match poorly.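 Cells: ReNCell VM human fetal ventral-midbrain neural progenitors, differentiated mitogen-free. Blinded raters compared doublecortin-stained (early neurons) or tyrosine hydroxylase-stained (dopaminergic neurons) images with untreated wells, where 0 means no change. After repeats and both raters were averaged, compounds scoring 2 or above became hits for retesting.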"}
{"smiles": "O=C(NCCCN1CCC2(CC1)OCc1ccccc12)[C@H]1CCCN1Cc1ccccc1", "values": [{"measurement": "neuronal differentiation score", "setting": "ReNCell VM [1]; library: Tocriscreen", "result": "inactive: 1"}, {"measurement": "dopaminergic neuron differentiation score", "setting": "ReNCell VM [2]; library: Tocriscreen", "result": "inactive: 0"}]}
{"smiles": "CC(N)=NCCCC[C@H](N)C(=O)O", "note": "[L-N6-(1-Iminoethyl)lysine hydrochloride]", "values": [{"measurement": "neuronal differentiation score", "setting": "ReNCell VM [1]; library: LOPAC", "result": "inactive: 0"}, {"measurement": "dopaminergic neuron differentiation score", "setting": "ReNCell VM [2]; library: LOPAC", "result": "inactive: 0"}]}
{"smiles": "CCCc1cc(C(N)=S)ccn1", "values": [{"measurement": "neuronal differentiation score", "setting": "ReNCell VM [1]; library: Spectrum", "result": "inactive: 0"}, {"measurement": "dopaminergic neuron differentiation score", "setting": "ReNCell VM [2]; library: Spectrum", "result": "inactive: 0"}]}
{"smiles": "COc1ccc(CCN(C)CCCC(C#N)(c2ccc(OC)c(OC)c2)C(C)C)cc1OC", "note": "(centres undefined)", "values": [{"measurement": "neuronal differentiation score", "setting": "ReNCell VM [1]; library: Spectrum", "result": "inactive: 0"}, {"measurement": "dopaminergic neuron differentiation score", "setting": "ReNCell VM [2]; library: Spectrum", "result": "inactive: 0"}]}
{"smiles": "N[C@@H](C(=O)N[C@@H]1C(=O)N2C(C(=O)O)=C(Cl)CS[C@H]12)c1ccccc1", "note": "[Cefaclor hydrate]", "values": [{"measurement": "neuronal differentiation score", "setting": "ReNCell VM [1]; library: Prestwick", "result": "inactive: 0"}, {"measurement": "dopaminergic neuron differentiation score", "setting": "ReNCell VM [2]; library: Prestwick", "result": "inactive: 0"}]}
{"smiles": "O=C(O)Cc1cc(I)c(Oc2ccc(O)c(I)c2)c(I)c1", "values": [{"measurement": "neuronal differentiation score", "setting": "ReNCell VM [1]; library: Spectrum", "result": "inactive: 0"}, {"measurement": "dopaminergic neuron differentiation score", "setting": "ReNCell VM [2]; library: Spectrum", "result": "inactive: 0"}]}
{"smiles": "Cc1cnc(NC(=O)C2=C(O)c3ccccc3S(=O)(=O)N2C)s1", "values": [{"measurement": "neuronal differentiation score", "setting": "ReNCell VM [1]; library: Spectrum", "result": "inactive: -1"}, {"measurement": "dopaminergic neuron differentiation score", "setting": "ReNCell VM [2]; library: Spectrum", "result": "inactive: 0"}]}
{"smiles": "CC1=C(C(=O)O)N2C(=O)[C@@H](NC(=O)[C@H](N)c3ccccc3)[C@H]2SC1", "note": "[Cephalexin hydrate]", "values": [{"measurement": "neuronal differentiation score", "setting": "ReNCell VM [1]; library: LOPAC", "result": "inactive: -1"}, {"measurement": "dopaminergic neuron differentiation score", "setting": "ReNCell VM [2]; library: LOPAC", "result": "inactive: 0"}]}
{"smiles": "CC(C)(CO)[C@@H](O)C(=O)NCCC(=O)NCCSSCCNC(=O)CCNC(=O)[C@H](O)C(C)(C)CO", "values": [{"measurement": "neuronal differentiation score", "setting": "ReNCell VM [1]; library: Spectrum", "result": "inactive: 0"}, {"measurement": "dopaminergic neuron differentiation score", "setting": "ReNCell VM [2]; library: Spectrum", "result": "inactive: 0"}]}
{"smiles": "CCCCCc1c2c(cc(O)c1C(=O)O)OC(=O)c1c(cc(OC)cc1C(=O)CCCC)O2", "note": "[lobaric acid]", "values": [{"measurement": "neuronal differentiation score", "setting": "ReNCell VM [1]; library: Natural", "result": "inactive: 0"}, {"measurement": "dopaminergic neuron differentiation score", "setting": "ReNCell VM [2]; library: Natural", "result": "inactive: 0"}]}
{"smiles": "COc1cc(C(O)CO)ccc1OS(=O)(=O)O", "note": "(centres undefined) [MHPG sulfate potassium]", "values": [{"measurement": "neuronal differentiation score", "setting": "ReNCell VM [1]; library: LOPAC", "result": "inactive: 0"}, {"measurement": "dopaminergic neuron differentiation score", "setting": "ReNCell VM [2]; library: LOPAC", "result": "inactive: 0"}]}
{"smiles": "CCOC(=O)[C@H](CCc1ccccc1)N[C@@H](C)C(=O)N1Cc2ccccc2C[C@H]1C(=O)O", "values": [{"measurement": "neuronal differentiation score", "setting": "ReNCell VM [1]; library: Spectrum", "result": "inactive: 0"}, {"measurement": "dopaminergic neuron differentiation score", "setting": "ReNCell VM [2]; library: Spectrum", "result": "inactive: 0"}]}
{"smiles": "Nc1[nH]nc2nc3ccccc3nc12", "values": [{"measurement": "neuronal differentiation score", "setting": "ReNCell VM [1]; library: Tocriscreen", "result": "inactive: 0"}, {"measurement": "dopaminergic neuron differentiation score", "setting": "ReNCell VM [2]; library: Tocriscreen", "result": "inactive: 0"}]}
{"smiles": "CCc1cc(Cl)c(OC)c(C(=O)NC[C@@H]2CCCN2CC)c1O", "values": [{"measurement": "neuronal differentiation score", "setting": "ReNCell VM [1]; library: Spectrum", "result": "inactive: 0"}, {"measurement": "dopaminergic neuron differentiation score", "setting": "ReNCell VM [2]; library: Spectrum", "result": "inactive: 0"}]}
{"smiles": "O=C(c1ccc(OCCCc2c[nH]cn2)cc1)C1CC1", "note": "[Ciproxifan hydrochloride]", "values": [{"measurement": "neuronal differentiation score", "setting": "ReNCell VM [1]; library: LOPAC", "result": "inactive: 0"}, {"measurement": "dopaminergic neuron differentiation score", "setting": "ReNCell VM [2]; library: LOPAC", "result": "inactive: 0"}]}
{"smiles": "C[C@@H]1[C@H](O)[C@@H](C)/C=C/C=C/C=C/C=C/C=C/C=C/C=C/[C@H](O[C@@H]2O[C@H](C)[C@@H](O)[C@H](N)[C@@H]2O)C[C@@H]2O[C@](O)(C[C@@H](O)C[C@@H](O)[C@H](O)CC[C@@H](O)C[C@@H](O)CC(=O)O[C@H]1C)C[C@H](O)[C@H]2C(=O)O", "note": "[Amphotericin B]", "values": [{"measurement": "neuronal differentiation score", "setting": "ReNCell VM [1]; library: Prestwick", "result": "inactive: 0"}, {"measurement": "dopaminergic neuron differentiation score", "setting": "ReNCell VM [2]; library: Prestwick", "result": "inactive: 0"}]}
{"smiles": "CCCCC(CC)COc1ccc(-c2nc(-c3ccc(OC)cc3)nc(-c3ccc(OCC(CC)CCCC)cc3O)n2)c(O)c1", "note": "(centres undefined)", "values": [{"measurement": "neuronal differentiation score", "setting": "ReNCell VM [1]; library: Spectrum", "result": "inactive: 0"}, {"measurement": "dopaminergic neuron differentiation score", "setting": "ReNCell VM [2]; library: Spectrum", "result": "inactive: 0"}]}
{"smiles": "CCOC(=O)/C=C(C)/C=C/C=C(C)/C=C/c1c(C)cc(OC)c(C)c1C", "note": "[Etretinate]", "values": [{"measurement": "neuronal differentiation score", "setting": "ReNCell VM [1]; library: Prestwick", "result": "inactive: 0"}, {"measurement": "dopaminergic neuron differentiation score", "setting": "ReNCell VM [2]; library: Prestwick", "result": "inactive: 0"}]}
{"smiles": "COc1ccc2c(c1)CCC1C2CCC2(C)C(NCCCCCCN3C(=O)C=CC3=O)CCC12", "note": "(centres undefined)", "values": [{"measurement": "neuronal differentiation score", "setting": "ReNCell VM [1]; library: LOPAC", "result": "inactive: 0"}, {"measurement": "dopaminergic neuron differentiation score", "setting": "ReNCell VM [2]; library: LOPAC", "result": "inactive: 0"}]}
{"smiles": "CC1=CCC2C(C)(C)C(=O)CCC2(C)C1COc1ccc2ccc(=O)oc2c1", "note": "(centres undefined) [conferone]", "values": [{"measurement": "neuronal differentiation score", "setting": "ReNCell VM [1]; library: Natural", "result": "inactive: 0"}, {"measurement": "dopaminergic neuron differentiation score", "setting": "ReNCell VM [2]; library: Natural", "result": "inactive: 0"}]}
{"smiles": "COC1=C(OC)C(=O)C(CCCCCCCCCCO)=C(C)C1=O", "note": "[Idebenone]", "values": [{"measurement": "neuronal differentiation score", "setting": "ReNCell VM [1]; library: Prestwick", "result": "inactive: 0"}, {"measurement": "dopaminergic neuron differentiation score", "setting": "ReNCell VM [2]; library: Prestwick", "result": "inactive: 0"}]}
{"smiles": "CSc1ccc(C(=O)c2[nH]c(=O)[nH]c2C)cc1", "note": "[Enoximone]", "values": [{"measurement": "neuronal differentiation score", "setting": "ReNCell VM [1]; library: LOPAC", "result": "inactive: 0"}, {"measurement": "dopaminergic neuron differentiation score", "setting": "ReNCell VM [2]; library: LOPAC", "result": "inactive: 0"}]}
{"smiles": "COc1ccc(CC(C)NCC(O)c2ccc(O)c(NC=O)c2)cc1", "note": "(centres undefined) [Formoterol hemifumarate]", "values": [{"measurement": "neuronal differentiation score", "setting": "ReNCell VM [1]; library: Tocriscreen", "result": "inactive: 0"}, {"measurement": "dopaminergic neuron differentiation score", "setting": "ReNCell VM [2]; library: Tocriscreen", "result": "inactive: 0"}]}
{"smiles": "O=C(OCC(O)CO)c1ccccc1Nc1ccnc2cc(Cl)ccc12", "note": "(centres undefined) [Glafenine hydrochloride]", "values": [{"measurement": "neuronal differentiation score", "setting": "ReNCell VM [1]; library: Prestwick", "result": "inactive: 0"}, {"measurement": "dopaminergic neuron differentiation score", "setting": "ReNCell VM [2]; library: Prestwick", "result": "inactive: 0"}]}
{"smiles": "CC(=O)[C@@]1(O)CC[C@H]2[C@@H]3C[C@H](C)C4=CC(=O)C=C[C@]4(C)[C@@]3(F)[C@@H](O)C[C@@]21C", "note": "[Fluorometholone]", "values": [{"measurement": "neuronal differentiation score", "setting": "ReNCell VM [1]; library: Prestwick", "result": "inactive: 0"}, {"measurement": "dopaminergic neuron differentiation score", "setting": "ReNCell VM [2]; library: Prestwick", "result": "inactive: 0"}]}
{"smiles": "CC(C)(C)NC[C@H](O)COc1nsnc1N1CCOCC1", "values": [{"measurement": "neuronal differentiation score", "setting": "ReNCell VM [1]; library: Spectrum", "result": "inactive: 0"}, {"measurement": "dopaminergic neuron differentiation score", "setting": "ReNCell VM [2]; library: Spectrum", "result": "inactive: 0"}]}
{"smiles": "CN[C@@H]1[C@H](O[C@H]2[C@H](O[C@H]3[C@H](O)[C@@H](O)[C@H](N=C(N)N)[C@@H](O)[C@@H]3N=C(N)N)O[C@@H](C)[C@]2(O)C=O)O[C@@H](CO)[C@H](O)[C@H]1O", "values": [{"measurement": "neuronal differentiation score", "setting": "ReNCell VM [1]; library: Spectrum", "result": "inactive: 0"}, {"measurement": "dopaminergic neuron differentiation score", "setting": "ReNCell VM [2]; library: Spectrum", "result": "inactive: 1"}]}
{"smiles": "COCCCOc1ccnc(C[S+]([O-])c2nc3ccccc3[nH]2)c1C", "note": "(centres undefined) [Rabeprazole Sodium salt]", "values": [{"measurement": "neuronal differentiation score", "setting": "ReNCell VM [1]; library: Prestwick", "result": "inactive: 0"}, {"measurement": "dopaminergic neuron differentiation score", "setting": "ReNCell VM [2]; library: Prestwick", "result": "inactive: 0"}]}
{"smiles": "CC(C)=CCC1C(=O)C(C(=O)CC(C)C)=C(O)C(O)(CC=C(C)C)C1=O", "note": "(centres undefined) [humulone]", "values": [{"measurement": "neuronal differentiation score", "setting": "ReNCell VM [1]; library: Natural", "result": "inactive: 0"}, {"measurement": "dopaminergic neuron differentiation score", "setting": "ReNCell VM [2]; library: Natural", "result": "inactive: 0"}]}
{"smiles": "Nc1nc2n[nH]nc2c(=O)[nH]1", "note": "[Azaguanine-8]", "values": [{"measurement": "neuronal differentiation score", "setting": "ReNCell VM [1]; library: Prestwick", "result": "inactive: 0"}, {"measurement": "dopaminergic neuron differentiation score", "setting": "ReNCell VM [2]; library: Prestwick", "result": "inactive: 0"}]}
{"smiles": "Nc1ccc(S(=O)(=O)Nc2ncccn2)cc1", "values": [{"measurement": "neuronal differentiation score", "setting": "ReNCell VM [1]; library: Spectrum", "result": "inactive: 0"}, {"measurement": "dopaminergic neuron differentiation score", "setting": "ReNCell VM [2]; library: Spectrum", "result": "inactive: 0"}]}
{"smiles": "O=C(N/N=C/c1ccc([N+](=O)[O-])o1)c1ccc(O)cc1", "values": [{"measurement": "neuronal differentiation score", "setting": "ReNCell VM [1]; library: Spectrum", "result": "inactive: 0"}, {"measurement": "dopaminergic neuron differentiation score", "setting": "ReNCell VM [2]; library: Spectrum", "result": "inactive: 0"}]}
